Test [1] has as its target Myc-ATBF1 (AT motif-binding factor-1) (UniProt Q15911). The test can be described thus: co-IP; data not shown: ATBF1 with Smad2; details not told.
Test [2] has the same target. The test can be described thus: co-IP; COS7 cells transfected with Flag-Smad3 and Myc-ATBF1, with or without ALK5ca/V5; lysis in TNE buffer (10 mM Tris pH 7.4, 150 mM NaCl, 1 mM EDTA, 1% NP-40); IP with anti-Myc, IB with anti-Flag; 4°C.
In test [3] the target is HA-ATBF1 (AT motif-binding factor-1) (UniProt Q15911). In words: DNA affinity precipitation (DNAP); lysates of transfected COS7 cells in TNE buffer mixed, incubated with biotinylated (AT-motif)3 DNA for 2 h at 4°C, precipitated with streptavidin agarose; IB with anti-Flag or anti-HA.

Protein sequences, listed by entry. Tags and fused reporters are not part of them.
UniProt Q15911: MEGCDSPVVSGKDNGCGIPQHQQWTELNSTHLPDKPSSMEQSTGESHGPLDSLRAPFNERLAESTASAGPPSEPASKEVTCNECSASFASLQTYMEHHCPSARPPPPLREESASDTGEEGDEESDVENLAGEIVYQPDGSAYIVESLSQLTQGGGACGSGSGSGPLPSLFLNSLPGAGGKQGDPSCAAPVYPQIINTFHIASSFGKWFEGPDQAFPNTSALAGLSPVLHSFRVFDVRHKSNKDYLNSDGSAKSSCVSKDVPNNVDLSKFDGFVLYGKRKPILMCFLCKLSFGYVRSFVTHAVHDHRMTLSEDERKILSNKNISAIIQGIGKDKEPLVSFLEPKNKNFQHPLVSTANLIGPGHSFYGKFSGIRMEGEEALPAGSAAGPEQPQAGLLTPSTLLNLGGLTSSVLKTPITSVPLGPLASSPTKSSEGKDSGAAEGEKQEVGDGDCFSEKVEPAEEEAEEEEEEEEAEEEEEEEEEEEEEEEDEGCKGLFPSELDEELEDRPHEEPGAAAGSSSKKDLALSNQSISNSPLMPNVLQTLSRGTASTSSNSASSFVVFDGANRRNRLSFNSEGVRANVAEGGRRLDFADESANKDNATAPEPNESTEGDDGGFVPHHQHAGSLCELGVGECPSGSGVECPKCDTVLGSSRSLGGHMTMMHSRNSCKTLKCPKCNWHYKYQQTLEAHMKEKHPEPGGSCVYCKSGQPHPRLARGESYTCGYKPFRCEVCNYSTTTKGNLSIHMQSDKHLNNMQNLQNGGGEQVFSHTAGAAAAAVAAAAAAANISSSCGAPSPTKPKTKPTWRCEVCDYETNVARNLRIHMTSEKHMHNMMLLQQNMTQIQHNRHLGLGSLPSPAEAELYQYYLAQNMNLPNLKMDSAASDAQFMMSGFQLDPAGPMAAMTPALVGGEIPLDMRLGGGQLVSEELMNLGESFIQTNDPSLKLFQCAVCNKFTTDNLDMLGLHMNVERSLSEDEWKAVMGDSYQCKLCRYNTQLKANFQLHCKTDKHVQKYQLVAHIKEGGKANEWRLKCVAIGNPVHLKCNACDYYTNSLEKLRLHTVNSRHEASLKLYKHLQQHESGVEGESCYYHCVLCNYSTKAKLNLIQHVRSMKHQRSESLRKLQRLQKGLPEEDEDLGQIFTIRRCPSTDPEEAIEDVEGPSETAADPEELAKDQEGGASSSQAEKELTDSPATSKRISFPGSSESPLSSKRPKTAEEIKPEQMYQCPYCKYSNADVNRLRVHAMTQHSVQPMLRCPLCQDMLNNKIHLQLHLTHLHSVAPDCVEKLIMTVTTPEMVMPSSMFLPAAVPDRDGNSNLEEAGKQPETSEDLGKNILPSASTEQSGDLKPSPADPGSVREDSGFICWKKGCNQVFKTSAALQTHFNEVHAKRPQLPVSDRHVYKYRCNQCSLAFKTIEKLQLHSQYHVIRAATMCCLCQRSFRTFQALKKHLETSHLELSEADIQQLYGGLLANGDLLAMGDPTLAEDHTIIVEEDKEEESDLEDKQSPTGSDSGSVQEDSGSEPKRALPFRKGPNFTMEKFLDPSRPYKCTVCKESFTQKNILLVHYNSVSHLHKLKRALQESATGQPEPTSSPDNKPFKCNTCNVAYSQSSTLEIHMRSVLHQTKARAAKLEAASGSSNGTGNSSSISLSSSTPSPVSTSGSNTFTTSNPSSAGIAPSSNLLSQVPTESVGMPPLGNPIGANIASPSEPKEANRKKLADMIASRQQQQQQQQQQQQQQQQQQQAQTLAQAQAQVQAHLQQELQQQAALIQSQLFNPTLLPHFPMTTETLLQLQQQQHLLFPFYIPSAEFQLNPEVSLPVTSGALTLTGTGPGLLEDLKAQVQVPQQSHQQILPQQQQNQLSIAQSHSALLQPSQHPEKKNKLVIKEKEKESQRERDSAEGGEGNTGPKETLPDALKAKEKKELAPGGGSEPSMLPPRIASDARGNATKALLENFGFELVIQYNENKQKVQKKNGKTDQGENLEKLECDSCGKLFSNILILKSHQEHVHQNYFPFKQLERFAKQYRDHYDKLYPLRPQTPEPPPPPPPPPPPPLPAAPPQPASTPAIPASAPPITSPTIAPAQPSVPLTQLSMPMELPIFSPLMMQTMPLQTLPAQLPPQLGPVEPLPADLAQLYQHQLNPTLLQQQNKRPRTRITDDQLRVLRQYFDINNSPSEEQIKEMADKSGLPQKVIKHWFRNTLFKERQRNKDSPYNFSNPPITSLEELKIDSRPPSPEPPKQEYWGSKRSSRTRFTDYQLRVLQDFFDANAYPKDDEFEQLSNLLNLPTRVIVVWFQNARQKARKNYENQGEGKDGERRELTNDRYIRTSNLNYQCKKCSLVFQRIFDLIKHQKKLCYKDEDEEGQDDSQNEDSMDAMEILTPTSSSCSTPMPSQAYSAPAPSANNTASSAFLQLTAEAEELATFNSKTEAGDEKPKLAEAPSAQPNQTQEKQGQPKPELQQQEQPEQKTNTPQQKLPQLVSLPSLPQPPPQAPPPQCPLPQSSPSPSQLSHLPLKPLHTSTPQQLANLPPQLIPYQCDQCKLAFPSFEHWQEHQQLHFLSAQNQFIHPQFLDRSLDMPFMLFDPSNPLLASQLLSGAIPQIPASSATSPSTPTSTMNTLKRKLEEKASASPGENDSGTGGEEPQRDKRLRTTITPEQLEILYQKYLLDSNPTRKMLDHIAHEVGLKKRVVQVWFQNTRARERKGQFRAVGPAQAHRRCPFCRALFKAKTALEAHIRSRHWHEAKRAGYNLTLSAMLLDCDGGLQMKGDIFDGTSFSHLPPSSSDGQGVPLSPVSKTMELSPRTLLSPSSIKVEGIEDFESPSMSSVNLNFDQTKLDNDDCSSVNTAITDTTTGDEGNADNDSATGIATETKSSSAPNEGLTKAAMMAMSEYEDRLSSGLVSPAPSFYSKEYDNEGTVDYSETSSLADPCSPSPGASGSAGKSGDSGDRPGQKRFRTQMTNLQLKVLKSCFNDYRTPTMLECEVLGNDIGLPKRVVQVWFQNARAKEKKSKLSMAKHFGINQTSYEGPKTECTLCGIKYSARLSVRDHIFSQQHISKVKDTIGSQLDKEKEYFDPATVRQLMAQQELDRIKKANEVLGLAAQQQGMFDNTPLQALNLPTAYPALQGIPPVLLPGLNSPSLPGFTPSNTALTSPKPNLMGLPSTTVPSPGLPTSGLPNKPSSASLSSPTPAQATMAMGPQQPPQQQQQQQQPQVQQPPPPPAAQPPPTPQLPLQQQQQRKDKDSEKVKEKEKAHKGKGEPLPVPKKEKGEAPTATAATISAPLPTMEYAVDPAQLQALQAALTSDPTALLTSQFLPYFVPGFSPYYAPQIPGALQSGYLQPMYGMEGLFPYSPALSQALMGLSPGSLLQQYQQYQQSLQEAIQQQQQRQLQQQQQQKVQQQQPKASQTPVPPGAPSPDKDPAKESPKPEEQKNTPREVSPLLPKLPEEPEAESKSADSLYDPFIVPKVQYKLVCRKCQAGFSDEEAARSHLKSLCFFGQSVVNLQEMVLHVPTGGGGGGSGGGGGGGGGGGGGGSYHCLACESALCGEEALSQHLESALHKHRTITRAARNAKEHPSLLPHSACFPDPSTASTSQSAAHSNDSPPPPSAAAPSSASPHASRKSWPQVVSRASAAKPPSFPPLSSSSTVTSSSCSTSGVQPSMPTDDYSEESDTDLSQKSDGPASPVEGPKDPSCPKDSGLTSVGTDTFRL
UniProt Q15796: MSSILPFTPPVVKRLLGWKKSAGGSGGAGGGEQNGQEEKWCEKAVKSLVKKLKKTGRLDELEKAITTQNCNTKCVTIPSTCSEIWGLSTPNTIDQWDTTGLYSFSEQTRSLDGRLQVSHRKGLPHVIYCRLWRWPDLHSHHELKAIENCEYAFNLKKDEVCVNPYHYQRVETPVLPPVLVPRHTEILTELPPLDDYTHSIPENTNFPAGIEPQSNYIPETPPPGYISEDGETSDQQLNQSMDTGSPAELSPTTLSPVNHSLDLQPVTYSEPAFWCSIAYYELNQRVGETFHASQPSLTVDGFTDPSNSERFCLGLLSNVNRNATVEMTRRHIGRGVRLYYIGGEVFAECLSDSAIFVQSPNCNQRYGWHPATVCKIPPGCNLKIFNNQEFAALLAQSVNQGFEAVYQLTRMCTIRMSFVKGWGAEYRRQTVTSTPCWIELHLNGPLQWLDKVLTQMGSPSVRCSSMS
UniProt P84022: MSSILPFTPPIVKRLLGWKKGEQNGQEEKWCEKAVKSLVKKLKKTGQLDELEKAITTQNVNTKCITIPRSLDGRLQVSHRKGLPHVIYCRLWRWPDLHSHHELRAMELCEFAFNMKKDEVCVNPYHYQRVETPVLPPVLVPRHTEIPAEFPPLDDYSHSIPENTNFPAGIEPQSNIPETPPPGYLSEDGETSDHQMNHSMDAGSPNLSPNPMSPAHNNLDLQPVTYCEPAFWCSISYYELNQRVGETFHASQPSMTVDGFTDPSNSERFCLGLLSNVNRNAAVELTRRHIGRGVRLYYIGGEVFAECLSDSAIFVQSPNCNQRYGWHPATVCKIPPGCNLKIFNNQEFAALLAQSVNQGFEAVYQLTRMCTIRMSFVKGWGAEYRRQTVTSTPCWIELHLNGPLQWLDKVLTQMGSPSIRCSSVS

No constants are given. Whether binding was seen depends on the method and setting. For part of these data: In cells and extracts the contact can be indirect. Some entries that bind do so weakly or less than the wild type.

The values that follow come from paper PMC4106063.

Take Flag-Smad2 (from UniProt Q15796 1-467): the binding entry in test [1] is listed as “binds”.

With Flag-Smad3 (from UniProt P84022 1-425), the binding result in test [2] and in test [3] was “binds” throughout.
